# Measured data: PubChem BioAssay AID1259254 (NCATS, 2017)
# Assay: 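Finding genes that stop cells copying their DNA twice in one cycle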 (primary screen)
# Cells: human HCT116 colorectal cancer cells
# Knock-down reagent: single siRNA against human genes
# Timing: 3 days
# Read-out: 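Imaged Hoechst DNA stain sorts each cell into a cycle phase by DNA amount; per plate, G2 fraction set to 0% for non-targeting and 100% for GMNN siRNA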
# Direction: G2 robust z-score and G2 cells, % of GMNN control: higher = more G2 cells, more excess DNA replication; raw share of cells in G2: higher = larger share of cells with G2 DNA content
# Hit rule: 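An siRNA counts as active if its G2 robust z-score lies at least 5 MADs above the screen median; here such calls match roughly 38% of GMNN control or more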
# Shown is a random part of about 59,000 reagents tested. About 1,550 of them (2.6%) were called active. 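G2 share is only a proxy for re-replication; each gene was hit by three separate siRNAs, and active genes were retested.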 The raw values are shown without normalisation. Entries without a mark were called inactive. Reagents against one gene are numbered here. Not given: the amount of reagent.
The opening 3 entries, to show the layout:
gene symbol,siRNA no.,G2 robust z-score,"G2 cells, % of GMNN control",raw share of cells in G2 (%)
TLR3 (toll like receptor 3),1,0.00737,3.02,5.55
TLR3 (toll like receptor 3),2,0.589,7.11,7.19
TLR3 (toll like receptor 3),3,-0.964,-3.82,3.9

The list itself, repeating the preview:
gene symbol,siRNA no.,G2 robust z-score,"G2 cells, % of GMNN control",raw share of cells in G2 (%)
TLR3 (toll like receptor 3),1,0.00737,3.02,5.55
TLR3 (toll like receptor 3),2,0.589,7.11,7.19
TLR3 (toll like receptor 3),3,-0.964,-3.82,3.9
PGPEP1L (pyroglutamyl-peptidase I like),1,-0.743,-2.26,2.28
PGPEP1L (pyroglutamyl-peptidase I like),2,1.69,14.9,8.82
PGPEP1L (pyroglutamyl-peptidase I like),3,-0.202,1.55,3.39
KCNIP4 (potassium voltage-gated channel interacting protein 4),1,0.0492,3.31,3.96
KCNIP4 (potassium voltage-gated channel interacting protein 4),2,2.5,20.5,15.2
KCNIP4 (potassium voltage-gated channel interacting protein 4),3,1.57,14,8.03
HEATR3 (HEAT repeat containing 3),1,-0.772,-2.47,3.58
HEATR3 (HEAT repeat containing 3),2,0.213,4.47,5.99
HEATR3 (HEAT repeat containing 3),3,0.358,5.49,4.89
CFAP20DC (CFAP20 domain containing),1,0.167,4.14,5.09
CFAP20DC (CFAP20 domain containing),2,-0.726,-2.14,2.24
CFAP20DC (CFAP20 domain containing),3,0.353,5.45,4.49
CYGB (cytoglobin),1,-0.952,-3.73,3.94
CYGB (cytoglobin),2,2.29,19.1,11.7
CYGB (cytoglobin),3,-0.566,-1.01,4.53
FAM20C (FAM20C golgi associated secretory pathway kinase),1,-0.339,0.585,3.21
FAM20C (FAM20C golgi associated secretory pathway kinase),2,-0.36,0.438,4.52
FAM20C (FAM20C golgi associated secretory pathway kinase),3,0.269,4.86,6.78
PDAP1 (PDGFA associated protein 1),1,-0.624,-1.43,4.43
PDAP1 (PDGFA associated protein 1),2,0.0445,3.28,5.49
PDAP1 (PDGFA associated protein 1),3,-0.689,-1.88,2.47
DUSP13B (dual specificity phosphatase 13B),1,-0.959,-3.78,3.57
DUSP13B (dual specificity phosphatase 13B),2,-0.84,-2.94,3.42
DUSP13B (dual specificity phosphatase 13B),3,0.488,6.4,5.42
USH1C (USH1 protein network component harmonin),1,1.02,10.2,8.88
USH1C (USH1 protein network component harmonin),2,0.593,7.14,7.9
USH1C (USH1 protein network component harmonin),3,-0.282,0.982,3.53
